No constants are given. Whether binding was seen depends on the method and setting. For some assays here: A result given as binding can be weak or reduced; the word gives no strength. Tags and fused reporters may be left off the sequences shown.
What was measured:
[1] = biological target: T1, biotinylated AviTag-MANF^22–179 (mouse) (UniProt Q9CXI5); experiment: BLI; streptavidin biosensors loaded with biotinylated MANF, SAP or SAPLIP; BiP^T229A-V461F (46 µM) as analyte with 2 mM ATP; HKMT buffer, Octet RED96; both purified
T1 sequence (chain, biotin (on the AviTag, by E. coli BirA)): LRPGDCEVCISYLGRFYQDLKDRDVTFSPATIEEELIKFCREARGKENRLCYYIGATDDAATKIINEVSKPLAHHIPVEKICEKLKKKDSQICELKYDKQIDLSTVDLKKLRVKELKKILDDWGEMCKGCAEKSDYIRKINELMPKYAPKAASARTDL

[2] = biological target: T2, biotinylated AviTag-SAPLIP^22–123 (mouse) (UniProt Q9CXI5); experiment: as above
T2 sequence (chain, biotin (on the AviTag, by E. coli BirA)): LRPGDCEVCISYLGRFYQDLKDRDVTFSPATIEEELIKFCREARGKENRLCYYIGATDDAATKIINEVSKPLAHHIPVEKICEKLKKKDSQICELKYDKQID

[3] = biological target: T3, biotinylated AviTag-SAP^119–179 (mouse) (UniProt Q9CXI5); experiment: as above
T3 sequence (chain, biotin (on the AviTag, by E. coli BirA)): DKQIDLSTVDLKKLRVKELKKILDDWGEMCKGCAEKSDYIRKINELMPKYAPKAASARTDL

[4] = biological target: T1, biotinylated AviTag-MANF^22–179 (mouse); experiment: BLI; streptavidin biosensors loaded with biotinylated MANF, SAP or SAPLIP; BiP^T229A-V461F (46 µM) as analyte with 2 mM ADP; HKMT buffer (50 mM HEPES-KOH pH 7.4, 100 mM KCl, 10 mM MgCl2, 0.05% Triton X-100), Octet RED96; both purified
[5] = biological target: T2, biotinylated AviTag-SAPLIP^22–123 (mouse); experiment: as above
[6] = biological target: T3, biotinylated AviTag-SAP^119–179 (mouse); experiment: as above
[7] = biological target: T1, biotinylated AviTag-MANF^22–179 (mouse); experiment: BLI; sequential dipping: streptavidin biosensors loaded with biotinylated MANF, SAP or SAPLIP, dipped in BiP SBD, buffer, BiP NBD with 2 mM ATP, 2 mM ATP, BiP NBD with 2 mM ADP, 2 mM ADP; HKMT buffer; both purified
[8] = biological target: T3, biotinylated AviTag-SAP^119–179 (mouse); experiment: as above

| Substance | binding [1] | binding [2] | binding [3] | binding [4] | binding [5] | binding [6] | binding [7] | binding [8] |
| --- | --- | --- | --- | --- | --- | --- | --- | --- |
| BiP^T229A-V461F (Chinese hamster) | no binding (only with 2 mM ATP (BiP at 46 µM)) | no binding (tested: 46 µM) | no binding (only with 2 mM ATP (BiP at 46 µM)) | binds | no binding (tested: 46 µM) | binds |  |  |
| isolated BiP substrate (client)-binding domain (Chinese hamster) (domain or fragment) |  |  |  |  |  |  | no binding | no binding |

Source: publication PMC6358605
